{"sequences": {"note": "By UniProt entry, the sequences of proteins in these tests, tags left out.", "UniProt O08573": "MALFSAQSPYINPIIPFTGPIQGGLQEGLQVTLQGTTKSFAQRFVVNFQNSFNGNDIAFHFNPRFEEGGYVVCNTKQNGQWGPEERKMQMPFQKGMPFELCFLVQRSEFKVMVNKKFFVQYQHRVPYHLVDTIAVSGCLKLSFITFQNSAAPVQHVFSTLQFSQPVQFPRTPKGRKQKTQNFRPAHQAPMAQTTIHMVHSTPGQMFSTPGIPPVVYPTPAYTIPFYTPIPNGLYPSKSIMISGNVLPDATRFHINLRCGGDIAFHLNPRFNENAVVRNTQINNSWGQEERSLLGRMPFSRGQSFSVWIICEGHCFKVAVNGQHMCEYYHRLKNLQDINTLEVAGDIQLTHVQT"}, "source": "paper PMC11761162", "target": "T1, GFP-mGBP2 WT (mouse) (UniProt Q9Z0E6)", "T1 sequence": "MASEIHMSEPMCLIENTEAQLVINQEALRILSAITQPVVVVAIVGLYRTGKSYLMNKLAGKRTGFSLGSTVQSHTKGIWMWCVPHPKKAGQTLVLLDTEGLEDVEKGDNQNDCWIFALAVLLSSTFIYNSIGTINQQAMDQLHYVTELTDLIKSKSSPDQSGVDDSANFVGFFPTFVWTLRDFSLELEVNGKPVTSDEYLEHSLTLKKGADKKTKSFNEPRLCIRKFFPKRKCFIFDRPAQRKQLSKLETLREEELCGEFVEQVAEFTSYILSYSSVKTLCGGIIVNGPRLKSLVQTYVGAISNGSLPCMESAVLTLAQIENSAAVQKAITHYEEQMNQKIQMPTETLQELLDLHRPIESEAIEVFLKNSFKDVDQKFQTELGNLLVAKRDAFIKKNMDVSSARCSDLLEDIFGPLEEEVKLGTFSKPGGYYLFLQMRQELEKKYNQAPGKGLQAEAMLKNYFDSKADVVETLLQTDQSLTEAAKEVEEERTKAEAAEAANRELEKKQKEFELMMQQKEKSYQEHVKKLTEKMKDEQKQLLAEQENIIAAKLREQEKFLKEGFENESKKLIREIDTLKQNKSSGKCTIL", "experiment": "co-IP; RFP-Trap or GFP-Trap beads, o/n at 4°C, on lysate supernatants of mGBP2-/- MEFs coexpressing GFP-mGBP2 WT or truncation mutants and mCherry-Gal9; IFN-γ 16 h, T. gondii ME49 4 h, MOI 50; Western blot with α-GFP or α-mCherry", "note": "No constants are given. Whether binding was seen depends on the method and setting. In cells and extracts the contact can be indirect. Some results given as binding are weak or reduced against the parent protein; the word gives no strength. Sequences can lack the tags named with a protein.", "data": [{"substance": "mCherry-Gal9 (N-terminal mCherry fusion of Galectin 9) (from UniProt O08573 1-353)", "values": [{"measurement": "binding", "value": "binds"}]}]}
